The supplement of paper PMC11732987, “Enantioselective OTUD7B fragment discovery through chemoproteomics screening and high-throughput optimisation” (Communications Chemistry, 2025)
Some of the results follow. The data scatter; read single values as rough.

Legend:
[1] = compound: ClCC(=O)N[C@@H]1CCCc2ccccc12; test: log2 mean competition ratio of IA-DTB cysteine labelling (DMSO/compound) (log2 ratio); higher = stronger cysteine engagement by compound; details: treatment time: 4 h, cell line lysate: HEK293T
Description: (§1)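 IA-DTB competitive cysteine chemoproteomics in HEK293T RIPA lysate. Lysates were treated with compound 29 or 30 at 50 or 200 µM for 4 h, then IA-DTB (500 µM, 1 h), trypsin-digested, NeutrAvidin-enriched and analysed by diaPASEF. Competition ratio = intensity DMSO / intensity compound (n=4 treated, n=64 DMSO); binding: mean log2 CR ≥ 1 and p ≤ 0.05 plus QC filters. Target is the cysteine site.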

[2] = compound: ClCC(=O)N[C@H]1CCCc2ccccc12; test: as above; details: treatment time: 4 h, cell line lysate: HEK293T
Description: as §1

Row | Target | log2 mean competition ratio ([1]; 50 µM) | log2 mean competition ratio ([1]; 200 µM) | log2 mean competition ratio ([2]; 50 µM) | log2 mean competition ratio ([2]; 200 µM)
1 | CTPS2 C313 (UniProt Q9NRF8) | 0.113 | -0.164 | – | –
2 | CTSC C337 (UniProt P53634) | -0.0266 | 0.0895 | – | –
3 | DDX24 C639 (UniProt Q9GZR7) | -0.23 | 0.243 | – | –
4 | CUL3 C522 (UniProt Q13618) | -0.023 | -0.507 | – | –
5 | CXorf38 C31 (UniProt Q8TB03) | 0.121 | -0.0967 | – | –
6 | DECR2 C80 (UniProt Q9NUI1) | 0.219 | 0.0135 | – | –
7 | CTSB C93 (UniProt P07858) | 0.016 | 0.334 | – | –
8 | DCAF10 C479 (UniProt Q5QP82) | -0.306 | -0.0104 | – | –
9 | DDX5 C200 (UniProt P17844) | -0.308 | -0.347 | – | –
10 | CRTAP C84 (UniProt O75718) | -0.0152 | 0.237 | – | –
11 | CRELD2 C277 (UniProt Q6UXH1) | 0.431 | 0.526 | – | –
12 | CRKL C249 (UniProt P46109) | 0.128 | 0.142 | – | –
13 | CTNNB1 C520 (UniProt P35222) | 0.0426 | 0.0632 | – | –
14 | CSNK1G2 C54 (UniProt P78368) | 0.0569 | 0.0385 | – | –
15 | DECR2 C13 (UniProt Q9NUI1) | -0.202 | 0.0969 | – | –
16 | CTBP2 C60 (UniProt P56545) | -0.233 | -0.0059 | – | –
17 | CTR9 C1052 (UniProt Q6PD62) | 0.0961 | -0.0413 | – | –
18 | CUL9 C1281 (UniProt Q8IWT3) | -0.173 | 0.061 | – | –
19 | CSPG4 C533 (UniProt Q6UVK1) | 0.115 | -0.0107 | – | –
20 | CTU2 C268 (UniProt Q2VPK5) | -0.102 | 0.279 | – | –

Copied from the list.
Value of DECR2 C80 (UniProt Q9NUI1) under log2 mean competition ratio ([1]; 200 µM): 0.0135
Value of CSNK1G2 C54 (UniProt P78368) under log2 mean competition ratio ([1]; 50 µM): 0.0569

The list continues.

Row | Target | log2 mean competition ratio ([1]; 50 µM) | log2 mean competition ratio ([1]; 200 µM) | log2 mean competition ratio ([2]; 50 µM) | log2 mean competition ratio ([2]; 200 µM)
21 | CRNKL1 C640 (UniProt Q9BZJ0) | 0.157 | -0.286 | – | –
22 | DDX23 C692 (UniProt Q9BUQ8) | 0.275 | -0.0479 | – | –
23 | CSTF3 C536 (UniProt Q12996) | 0.306 | -0.192 | – | –
24 | CSRP2 C58 (UniProt Q16527) | -0.0906 | -0.272 | – | –
25 | DARS2 C459 (UniProt Q6PI48) | 0.0447 | 0.327 | – | –
26 | DCAF10 C213 (UniProt Q5QP82) | -0.0181 | 0.0573 | – | –
27 | DDX54 C586 (UniProt Q8TDD1) | 0.359 | 0.075 | – | –
28 | DCTN4_(C41,C41,C51,C51,C54,C54) (UniProt Q9UJW0) | -0.269 | 0.184 | – | –
29 | CSK C411 (UniProt P41240) | 0.0361 | 0.137 | – | –
30 | DARS1 C334 | -0.246 | -0.124 | – | –
31 | CSE1L C272 (UniProt P55060) | 0.216 | -0.304 | – | –
32 | DDX50 C396 (UniProt Q9BQ39) | -0.151 | -0.224 | – | –
33 | DDX20 C162 (UniProt Q9UHI6) | -0.178 | -0.555 | – | –
34 | CUL4A C241 (UniProt Q13619) | -0.301 | -0.151 | – | –
35 | DDX3X C341 (UniProt O00571) | 0.0661 | 0.0252 | – | –
36 | DCTN6 C18 (UniProt O00399) | 0.0728 | 0.274 | – | –
37 | DDX59 C414 (UniProt Q5T1V6) | 0.219 | -0.263 | – | –
38 | CTU1 C290 (UniProt Q7Z7A3) | 0.194 | 0.185 | – | –
39 | DDX10 C295 (UniProt Q13206) | -0.188 | 0.25 | 0.0941 | 0.0979
40 | CUL1 C426 (UniProt Q13616) | -0.0376 | 0.237 | – | –

Row | Target | log2 mean competition ratio ([1]; 50 µM) | log2 mean competition ratio ([1]; 200 µM) | log2 mean competition ratio ([2]; 50 µM) | log2 mean competition ratio ([2]; 200 µM)
41 | DARS2 C590 (UniProt Q6PI48) | 0.451 | -0.4 | – | –
42 | DAGLB C465 (UniProt Q8NCG7) | -0.00162 | -0.0476 | – | –
43 | DDX41 C540 (UniProt Q9UJV9) | -0.106 | -0.233 | -0.598 | -0.124
44 | CSDE1 C106 (UniProt O75534) | 0.179 | -0.00939 | – | –
45 | DDX20 C181 (UniProt Q9UHI6) | 0.0506 | -0.104 | – | –
46 | CUL1 C170 (UniProt Q13616) | -0.233 | -0.0744 | – | –
47 | CTTN C246 (UniProt Q14247) | 0.155 | -0.137 | – | –
48 | CSK C290 (UniProt P41240) | 0.0631 | 0.304 | – | –
49 | CSDE1 C680 (UniProt O75534) | -0.0153 | -0.39 | 0.215 | -0.381
50 | DCTN3 C140 (UniProt O75935) | -0.176 | -0.0583 | – | –
51 | CSE1L C344 (UniProt P55060) | -0.272 | -0.119 | – | –
52 | CYB5B C119 | 0.142 | 0.151 | 0.257 | 0.357
53 | CYC1 C271 (UniProt P08574) | 0.0897 | -0.0892 | -0.0181 | 0.0313
54 | CRYZ C45 (UniProt Q08257) | 0.441 | 0.0425 | – | –
55 | CUL4B C264 | -0.27 | -0.0309 | – | –
56 | DCP2 C140 (UniProt Q8IU60) | -0.0777 | 0.113 | – | –
57 | CTTNBP2 C1595 | -0.0679 | 0.00414 | -0.301 | -0.231
58 | DDX56 C185 (UniProt Q9NY93) | 0.521 | -0.302 | – | –
